According to US11572341B2, “Biguanide compound and use thereof” (ImmunoMet Therapeutics Inc., priority 2014, dated 2023):
Structures can show the parent of a compound that is named as a salt. At least one structure is not confirmed: it was looked up by name or label, or the drawing left a doubt.

System: AMPKa [pT172]
Assay: AMPKa activation [pT172] in MCF7 cell
Assay type: cell-based
Conditions: 50 uM, 8 h treatment

## N=C(NC(=N)Nc1cccc(Br)c1)Nc1cccc(Br)c1 [Example 11, N1-(3-bromo)phenyl-N5-3-bromo)phenyl Biguanide Hydrochloride]
  AMPKa activation [pT172] (Unit/ml) @ MCF7 cell: cell death
